Results are given in words; binding and its absence hold for the method and conditions named. Some entries that bind do so weakly or less than the wild type.
Molecular target: ALPP-His protein (the sheet prints only '% αALPP CAR')
Test: flow cytometry of transduced primary human T cells stained with 0.1 ug ALPP-His protein and an anti-His antibody [right panel]

binding: binds
B1: A02-28H CAR (protein)
chain: QVQLKESGPGLVAPSQSLSITCTVSGFSLTSYGVSWVRQPPRKGLEWLGVIWEDGSTNYHSALISRLSINKDNSKSQVFLKLNSLQTDDTATYYCAKPHYGSSYVGAMEYWGQGTSVTVSSEKGRSGGGGSGGGGSGGGGSDIQMTQSPASLTASVGETVTITCRASENIYSYVAWYQQKQGKSPQFLVYNAKSLAEGVPSRFSGSGSGTQFSLKINSLQPEDFGNYYCQHHYVSPWTFGGGTKLEIRRYVIEVMYPPPYLDNEKSNGTIIHVKGKHLCPSPLFPGPSKPMALIVLGGVAGLLLFIGLGIFFRFSVVKRGRKKLLYIFKQPFMRPVQTTQEEDGCSCRFPEEEEGGCELRVKFSRSADAPAYQQGQNQLYNELNLGRREEYDVLDKRRGRDPEMGGKPRRKNPQEGLYNELQKDKMAEAYSEIGMKGERRRGKGHDGLYQGLSTATKDTYDALHMQALPPR

Source: patent US20220125845A1 (GUANGDONG TCRCURE BIOPHARMA TECHNOLOGY, published 2022)
